Measurements reported in PubChem BioAssay AID1259425 (University of Nebraska Medical Center, 2018)
The whole screen tested about 14,000 reagents; this is a part drawn at random. Not all columns of the deposit are shown. No sequences are given here. Not given: the time to read-out.

- Aim: 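Compare each knockdown with KSR1 silencing using changes in marker transcripts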 (primary screen)
- Cells: HCT116 human colon cancer cells
- Reagent: siRNA pool against human genes, 50 nM siRNA
- Detection: 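After 50 nM siRNA pool, branched-DNA assay measures six marker transcripts per well, minus blank, normalised to the geometric mean of two housekeeping transcripts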
- Reading the numbers: BNIP3L mRNA: higher = more BNIP3L transcript after knockdown

How did the screen score C3orf52?
BNIP3L mRNA, set 1: 0.107

For RCAN3, what does the deposit list?
BNIP3L mRNA, set 1: 0.11

With ABCG2, how do the results read?
BNIP3L mRNA, set 1: 0.0582

What did the screen give for MTA2?
BNIP3L mRNA, set 1: 0.111

For DHCR7, what was measured?
BNIP3L mRNA, set 1: 0.158

With PDP2, how do the results read?
BNIP3L mRNA, set 1: 0.0924

Which result is listed for NUCB1?
BNIP3L mRNA, set 1: 0.122

What did the screen give for ROBO1?
BNIP3L mRNA, set 1: 0.0833

With NRP1, what was measured?
BNIP3L mRNA, set 1: 0.145

With CRISPLD1, what was measured?
BNIP3L mRNA, set 1: 0.257

How did the screen score AAMDC?
BNIP3L mRNA, set 1: 0.165

What did the screen give for PLEKHA8?
BNIP3L mRNA, set 1: 0.093

Which result is listed for EMC3?
BNIP3L mRNA, set 1: 0.109

What did the screen give for CLEC2D?
BNIP3L mRNA, set 1: 0.113

With HAUS4, what does the deposit list?
BNIP3L mRNA, set 1: 0.0558

With CLEC4D, what does the deposit list?
BNIP3L mRNA, set 1: 0.106

Which result is listed for PMM1?
BNIP3L mRNA, set 1: 0.335

With APOA2, what does the deposit list?
BNIP3L mRNA, set 1: 0.104

For MYLK, how do the results read?
BNIP3L mRNA, set 1: 0.128

For SNX9, how do the results read?
BNIP3L mRNA, set 1: 0.104

With CCN2, how do the results read?
BNIP3L mRNA, set 1: 0.15

How did the screen score SLC25A15?
BNIP3L mRNA, set 1: 0.321

With RBP1, how do the results read?
BNIP3L mRNA, set 1: 0.0865

What did the screen give for TNFRSF8?
BNIP3L mRNA, set 1: 0.14

With MFSD11, what was measured?
BNIP3L mRNA, set 1: 0.107

For CHERP, what was measured?
BNIP3L mRNA, set 1: 0.257

How did the screen score BLOC1S5?
BNIP3L mRNA, set 1: 0.0636

How did the screen score PWP1?
BNIP3L mRNA, set 1: 0.073

4 entries already listed, arranged by “BNIP3L mRNA, set 1”, high to low:
DHCR7: BNIP3L mRNA, set 1 = 0.158
NUCB1: BNIP3L mRNA, set 1 = 0.122
PDP2: BNIP3L mRNA, set 1 = 0.0924
ROBO1: BNIP3L mRNA, set 1 = 0.0833
